Test results taken from the supplement of paper PMC11098740.
Some of the results follow. Single values are uncertain, as repeats are few or missing.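 Test system: a mixed pool of 41 HAP1 clones in which 61 cancer-associated proteins carry fluorescent tags inserted into introns, and each clone is identified from its image pattern. Read-outs are compared with DMSO-treated control wells. The BRD4 degrader dBET6 served as the positive control.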

The chains behind the UniProt entries cited, without tags or fusion partners.
UniProt O14980, whole entry: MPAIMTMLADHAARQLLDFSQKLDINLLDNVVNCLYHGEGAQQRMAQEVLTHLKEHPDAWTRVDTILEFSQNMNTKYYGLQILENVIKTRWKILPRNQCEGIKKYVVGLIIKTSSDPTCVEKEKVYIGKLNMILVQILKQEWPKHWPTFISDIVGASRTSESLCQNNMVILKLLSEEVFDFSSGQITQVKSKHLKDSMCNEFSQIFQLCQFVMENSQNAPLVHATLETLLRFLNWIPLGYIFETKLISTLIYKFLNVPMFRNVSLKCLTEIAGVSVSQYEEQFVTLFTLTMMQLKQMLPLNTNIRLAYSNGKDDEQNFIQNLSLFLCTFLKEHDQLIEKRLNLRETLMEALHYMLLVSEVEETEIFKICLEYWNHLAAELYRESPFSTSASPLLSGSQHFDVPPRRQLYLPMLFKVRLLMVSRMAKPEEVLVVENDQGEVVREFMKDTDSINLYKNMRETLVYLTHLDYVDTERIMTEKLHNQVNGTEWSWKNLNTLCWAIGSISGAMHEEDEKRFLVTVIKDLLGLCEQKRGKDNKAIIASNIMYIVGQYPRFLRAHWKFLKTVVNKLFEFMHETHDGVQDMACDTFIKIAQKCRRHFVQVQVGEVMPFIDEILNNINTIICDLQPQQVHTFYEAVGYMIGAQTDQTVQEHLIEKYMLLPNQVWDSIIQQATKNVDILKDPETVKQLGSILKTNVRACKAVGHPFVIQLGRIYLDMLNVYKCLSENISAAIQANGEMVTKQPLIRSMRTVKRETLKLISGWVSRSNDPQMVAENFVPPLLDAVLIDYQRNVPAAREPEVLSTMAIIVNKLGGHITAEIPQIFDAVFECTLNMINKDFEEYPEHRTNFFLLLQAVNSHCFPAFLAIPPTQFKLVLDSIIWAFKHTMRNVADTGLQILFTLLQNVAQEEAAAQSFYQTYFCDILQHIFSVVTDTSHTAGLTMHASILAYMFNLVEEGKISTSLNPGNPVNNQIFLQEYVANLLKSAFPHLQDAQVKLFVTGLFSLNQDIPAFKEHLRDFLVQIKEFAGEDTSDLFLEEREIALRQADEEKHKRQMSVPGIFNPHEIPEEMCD

target: XPO1 (intron 15 mScarlet tag, HAP1) (UniProt O14980); assay: XPO1 fluorescence intensity change vs DMSO (log2 fold change); higher = more XPO1 protein; conditions: 6 h

Structure (SMILES)	XPO1 fluorescence intensity change (log2)
COc1ccc2cc(C(C)C(=O)NCc3ccc(F)cc3)ccc2c1 (stereo not drawn) (10 µM)	-0.0867
Cc1ccc(CNC(=O)c2nnc(CCl)s2)cc1 (1 µM)	0.0148
CCc1cc2oc(=O)cc(CCl)c2cc1Cl (10 µM)	-0.00209
Oc1c(C(Nc2cccc(Cl)c2)c2ccccn2)ccc2cccnc12 (stereo not drawn) (10 µM)	0.095
CC(O)CNCc1ccc(N(c2ccccc2)c2ccccc2)cc1 (stereo not drawn) (10 µM)	-0.0367
COc1cc(S(=O)(=O)NCCc2c(C)[nH]c3ccc(Br)cc23)c(C)cc1C (10 µM)	-0.0703
Cc1ccc(Cl)cc1N1CCN(C(=O)NCc2cccs2)CC1 (10 µM)	0.305
CC(C)c1ccc(C(=O)N=C(N)N)cc1S(C)(=O)=O [cariporide] (10 µM)	0.0169
COc1cccc(/C=C/C(=O)c2ccc(O)c(CCCl)c2)c1 (10 µM)	-0.27
COc1ccc(C)cc1N1CC(C(=O)Nc2nc3ccccc3[nH]2)CC1=O (stereo not drawn) (1 µM)	-0.00155
Cc1oc(NC(=O)COC(=O)c2ccc(SC(F)F)cc2)c(C#N)c1C (10 µM)	-0.0348
CCCCn1c(CCl)nc2c1c(=O)[nH]c(=O)n2Cc1ccccc1 (1 µM)	0.00829
CNC(=O)Nc1ccc2c(c1)CC[C@@]21OC(=O)N(CC(=O)N(Cc2ccc(F)cc2)[C@@H](C)C(F)(F)F)C1=O (10.01286268 µM)	0.147
Clc1ccc2nc(Nc3ccncc3)nc(-c3ccccc3)c2c1 (10 µM)	0.0738
COc1ccc(N(Cc2cccs2)S(=O)(=O)c2cnn(C)c2)cc1 (10 µM)	0.0528
CCN(c1ccc(NC(=O)CCc2cscn2)cc1)C(C)C (10 µM)	-0.0135
C[C@@H](NC(=O)c1ncnc(N)c1Cl)c1ncc(C(=O)Nc2cc(C(F)(F)F)c(Cl)cn2)s1 (10 µM)	-0.0912
Cc1onc(-c2c(Cl)cccc2Cl)c1C(=O)N1CCN(c2cccc(C(F)(F)F)c2)CC1 (1 µM)	-0.0672
O=S(=O)(Nc1ccc(Cl)c2cccnc12)c1ccccc1 (10 µM)	-0.27
CCN(Cc1ccc2c(c1)OCO2)c1ncnc2ccccc12 (10 µM)	-0.0488

Structure (SMILES)	XPO1 fluorescence intensity change (log2)
Cc1cnc(NC(=O)C2CCCN2C(=O)c2ccc(Cl)c(Cl)c2)s1 (stereo not drawn) (10 µM)	-0.336
Nc1nn2cc(-c3ccccc3)nc2c2ccccc12 (10 µM)	0.0855
O=C(Nc1nc(-c2ccccn2)cs1)c1cncc(Br)c1 (10 µM)	-0.145
COc1ccc(CCNC(=O)c2cc3c(F)cccc3s2)cc1OC (10 µM)	-0.279
Cn1cc(-c2nc(N[C@@H]3CCCC[C@@H]3N)c(F)c3c2C(=O)NC3)cn1 (10 µM)	0.107
COc1ccc(-n2ccc(C(=O)Nc3ccnn3-c3ccccc3C)n2)cc1 (0.1 µM)	0.0888
CC1(C)CC(NCCc2cccc3cccnc23)c2ccccc2O1 (stereo not drawn) (0.1 µM)	-0.011
C[C@H](Nc1ncnc2nc[nH]c12)c1cc2cccc(Cl)c2c(=O)n1-c1ccccc1 (10 µM)	0.166
FC(F)(F)c1ccc(N2CCCN(c3ncnc4ccccc34)CC2)nc1 (10 µM)	-0.00484
CCc1cc(NC(=O)Cc2ccn(-c3ccc(F)cc3)n2)n[nH]1 (1 µM)	-0.0259
COc1ccc(-n2ccc(C(=O)Nc3cccnc3N(C)C)n2)cc1 (1 µM)	-0.0148
Nc1ccn([C@@H]2O[C@H](CO)[C@@H](O)C2(F)F)c(=O)n1 [gemcitabine] (1 µM)	0.0268
CCCCCCOc1ccc(C(=O)NN)cc1 (10 µM)	-0.226
Clc1cc2c(c3ncccc13)OCN(Cc1ccccc1)C2 (10 µM)	-0.252
COc1ccc(C)cc1NC(=O)c1ccc(-n2ccnc2)nc1 (10 µM)	-0.0151
CCc1nc(-c2ccc(O)c(O)c2)cs1 (10 µM)	0.0673
Cc1nc2c(-c3ccccc3)cnn2c(NCc2ccccn2)c1C (10 µM)	0.149
Cc1nn(-c2ccc(C(=O)NCc3cccnc3)cc2)c(C)c1Cl (1 µM)	0.0251
O=C(/C=C/c1cccc(NC(=O)c2ccc(Cl)cc2)c1)c1ccc(O)c(CCCl)c1 (10 µM)	-0.382

Among those listed so far, three contain a thiophene ring, fused or not:
Structure (SMILES)	XPO1 fluorescence intensity change (log2)
Cc1ccc(Cl)cc1N1CCN(C(=O)NCc2cccs2)CC1 (10 µM)	0.305
COc1ccc(N(Cc2cccs2)S(=O)(=O)c2cnn(C)c2)cc1 (10 µM)	0.0528
COc1ccc(CCNC(=O)c2cc3c(F)cccc3s2)cc1OC (10 µM)	-0.279

target: BRD4 (intron 10 mScarlet tag, HAP1) (UniProt O60885); assay: BRD4 median nuclear fluorescence intensity change vs DMSO (log2 fold change); higher = more BRD4 protein; conditions: 6 h

Structure (SMILES)	BRD4 median nuclear fluorescence intensity change (log2)
COc1ccc2cc(C(C)C(=O)NCc3ccc(F)cc3)ccc2c1 (stereo not drawn) (10 µM)	-0.0709
Cc1ccc(CNC(=O)c2nnc(CCl)s2)cc1 (1 µM)	-0.0179
CCc1cc2oc(=O)cc(CCl)c2cc1Cl (10 µM)	0.0276
Oc1c(C(Nc2cccc(Cl)c2)c2ccccn2)ccc2cccnc12 (stereo not drawn) (10 µM)	0.0913
CC(O)CNCc1ccc(N(c2ccccc2)c2ccccc2)cc1 (stereo not drawn) (10 µM)	-0.0282
COc1cc(S(=O)(=O)NCCc2c(C)[nH]c3ccc(Br)cc23)c(C)cc1C (10 µM)	0.102
Cc1ccc(Cl)cc1N1CCN(C(=O)NCc2cccs2)CC1 (10 µM)	0.233
CC(C)c1ccc(C(=O)N=C(N)N)cc1S(C)(=O)=O [cariporide] (10 µM)	-0.0408
COc1cccc(/C=C/C(=O)c2ccc(O)c(CCCl)c2)c1 (10 µM)	-0.0968
COc1ccc(C)cc1N1CC(C(=O)Nc2nc3ccccc3[nH]2)CC1=O (stereo not drawn) (1 µM)	0.0768
Cc1oc(NC(=O)COC(=O)c2ccc(SC(F)F)cc2)c(C#N)c1C (10 µM)	-0.0337
CCCCn1c(CCl)nc2c1c(=O)[nH]c(=O)n2Cc1ccccc1 (1 µM)	0.0436
CNC(=O)Nc1ccc2c(c1)CC[C@@]21OC(=O)N(CC(=O)N(Cc2ccc(F)cc2)[C@@H](C)C(F)(F)F)C1=O (10.01286268 µM)	0.106
Clc1ccc2nc(Nc3ccncc3)nc(-c3ccccc3)c2c1 (10 µM)	0.0284
COc1ccc(N(Cc2cccs2)S(=O)(=O)c2cnn(C)c2)cc1 (10 µM)	0.0122
CCN(c1ccc(NC(=O)CCc2cscn2)cc1)C(C)C (10 µM)	0.0251
C[C@@H](NC(=O)c1ncnc(N)c1Cl)c1ncc(C(=O)Nc2cc(C(F)(F)F)c(Cl)cn2)s1 (10 µM)	0.00671
Cc1onc(-c2c(Cl)cccc2Cl)c1C(=O)N1CCN(c2cccc(C(F)(F)F)c2)CC1 (1 µM)	0.0202
O=S(=O)(Nc1ccc(Cl)c2cccnc12)c1ccccc1 (10 µM)	0.0514
CCN(Cc1ccc2c(c1)OCO2)c1ncnc2ccccc12 (10 µM)	0.0947

Structure (SMILES)	BRD4 median nuclear fluorescence intensity change (log2)
Cc1cnc(NC(=O)C2CCCN2C(=O)c2ccc(Cl)c(Cl)c2)s1 (stereo not drawn) (10 µM)	0.0376
Nc1nn2cc(-c3ccccc3)nc2c2ccccc12 (10 µM)	-0.0214
O=C(Nc1nc(-c2ccccn2)cs1)c1cncc(Br)c1 (10 µM)	-0.0952
COc1ccc(CCNC(=O)c2cc3c(F)cccc3s2)cc1OC (10 µM)	-0.17
Cn1cc(-c2nc(N[C@@H]3CCCC[C@@H]3N)c(F)c3c2C(=O)NC3)cn1 (10 µM)	0.0877
COc1ccc(-n2ccc(C(=O)Nc3ccnn3-c3ccccc3C)n2)cc1 (0.1 µM)	0.0317
CC1(C)CC(NCCc2cccc3cccnc23)c2ccccc2O1 (stereo not drawn) (0.1 µM)	0.00618
C[C@H](Nc1ncnc2nc[nH]c12)c1cc2cccc(Cl)c2c(=O)n1-c1ccccc1 (10 µM)	0.306
FC(F)(F)c1ccc(N2CCCN(c3ncnc4ccccc34)CC2)nc1 (10 µM)	0.00866
CCc1cc(NC(=O)Cc2ccn(-c3ccc(F)cc3)n2)n[nH]1 (1 µM)	-0.0944
COc1ccc(-n2ccc(C(=O)Nc3cccnc3N(C)C)n2)cc1 (1 µM)	-0.0397
Nc1ccn([C@@H]2O[C@H](CO)[C@@H](O)C2(F)F)c(=O)n1 [gemcitabine] (1 µM)	-0.0421
CCCCCCOc1ccc(C(=O)NN)cc1 (10 µM)	0.0296
Clc1cc2c(c3ncccc13)OCN(Cc1ccccc1)C2 (10 µM)	-0.00808
COc1ccc(C)cc1NC(=O)c1ccc(-n2ccnc2)nc1 (10 µM)	0.068
CCc1nc(-c2ccc(O)c(O)c2)cs1 (10 µM)	0.0311
Cc1nc2c(-c3ccccc3)cnn2c(NCc2ccccn2)c1C (10 µM)	0.0825
Cc1nn(-c2ccc(C(=O)NCc3cccnc3)cc2)c(C)c1Cl (1 µM)	0.117
O=C(/C=C/c1cccc(NC(=O)c2ccc(Cl)cc2)c1)c1ccc(O)c(CCCl)c1 (10 µM)	0.162
